The target of assay [1] is T1, ORP5 (endogenous) (human (endogenous in HeLa)) (UniProt Q9H0X9).
T1 sequence: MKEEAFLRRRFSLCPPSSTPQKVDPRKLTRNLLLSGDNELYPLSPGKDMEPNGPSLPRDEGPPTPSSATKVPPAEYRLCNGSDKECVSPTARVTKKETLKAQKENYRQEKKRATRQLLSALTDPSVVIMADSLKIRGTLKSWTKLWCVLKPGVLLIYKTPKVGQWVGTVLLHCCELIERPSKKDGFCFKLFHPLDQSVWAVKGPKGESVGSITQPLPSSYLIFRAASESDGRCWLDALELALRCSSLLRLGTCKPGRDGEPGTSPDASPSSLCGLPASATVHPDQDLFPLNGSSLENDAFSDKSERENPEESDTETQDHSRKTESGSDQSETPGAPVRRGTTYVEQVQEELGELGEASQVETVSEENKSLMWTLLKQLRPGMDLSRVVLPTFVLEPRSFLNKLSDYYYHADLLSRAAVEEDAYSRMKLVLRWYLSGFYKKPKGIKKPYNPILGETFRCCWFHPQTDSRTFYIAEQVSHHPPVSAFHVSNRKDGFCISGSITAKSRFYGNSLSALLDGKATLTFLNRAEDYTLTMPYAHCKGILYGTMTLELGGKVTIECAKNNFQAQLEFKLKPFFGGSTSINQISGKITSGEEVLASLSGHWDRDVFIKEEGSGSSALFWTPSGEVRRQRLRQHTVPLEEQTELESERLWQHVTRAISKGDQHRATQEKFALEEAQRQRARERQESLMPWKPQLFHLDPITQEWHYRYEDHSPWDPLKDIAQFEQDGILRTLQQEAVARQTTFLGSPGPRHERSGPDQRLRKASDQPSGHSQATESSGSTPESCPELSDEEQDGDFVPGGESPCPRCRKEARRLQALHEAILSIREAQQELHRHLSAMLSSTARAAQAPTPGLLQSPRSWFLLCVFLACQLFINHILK
As to the kind of experiment: proximity ligation.

Sequences of proteins named here, by UniProt entry; tags and fusion partners are left off.
UniProt Q15388: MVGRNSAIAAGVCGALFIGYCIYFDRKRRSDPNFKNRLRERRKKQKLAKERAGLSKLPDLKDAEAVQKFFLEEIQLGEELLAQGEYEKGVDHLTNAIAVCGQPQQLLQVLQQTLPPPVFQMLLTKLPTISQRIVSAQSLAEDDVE

The target in assay [2] is T2, ORP8 (endogenous) (human (endogenous in HeLa)) (UniProt Q9BZF1).
T2 sequence: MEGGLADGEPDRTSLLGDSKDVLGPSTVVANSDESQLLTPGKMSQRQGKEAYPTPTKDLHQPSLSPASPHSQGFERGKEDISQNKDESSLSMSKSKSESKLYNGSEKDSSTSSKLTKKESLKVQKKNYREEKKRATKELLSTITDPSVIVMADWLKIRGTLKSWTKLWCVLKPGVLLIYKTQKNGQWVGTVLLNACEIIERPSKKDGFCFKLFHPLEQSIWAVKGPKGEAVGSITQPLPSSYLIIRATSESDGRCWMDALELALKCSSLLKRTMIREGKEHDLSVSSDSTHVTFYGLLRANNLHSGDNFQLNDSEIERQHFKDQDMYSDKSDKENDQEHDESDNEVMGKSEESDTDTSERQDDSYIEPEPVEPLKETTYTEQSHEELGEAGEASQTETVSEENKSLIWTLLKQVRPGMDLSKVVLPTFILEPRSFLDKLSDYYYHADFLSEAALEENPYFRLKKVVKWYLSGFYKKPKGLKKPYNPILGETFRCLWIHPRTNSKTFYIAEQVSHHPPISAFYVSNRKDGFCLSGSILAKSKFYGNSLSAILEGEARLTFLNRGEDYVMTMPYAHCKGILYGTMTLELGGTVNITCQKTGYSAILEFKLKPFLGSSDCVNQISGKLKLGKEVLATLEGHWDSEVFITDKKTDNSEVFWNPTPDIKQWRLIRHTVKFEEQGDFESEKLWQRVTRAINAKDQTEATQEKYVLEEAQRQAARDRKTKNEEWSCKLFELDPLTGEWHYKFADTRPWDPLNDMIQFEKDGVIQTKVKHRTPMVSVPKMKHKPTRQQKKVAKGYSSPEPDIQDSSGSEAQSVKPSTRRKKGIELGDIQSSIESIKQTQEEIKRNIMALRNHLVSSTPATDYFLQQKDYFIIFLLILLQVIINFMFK
Briefly: proximity ligation.

For assay [3], the target named is T2, ORP8 (endogenous) (human (endogenous in HeLa)). Briefly: proximity ligation. This is another data set of the same source.
A further assay concerns the target T3, EGFP-ORP5 (UniProt Q9H0X9).
T3 sequence: T1 sequence
Briefly: co-IP.

For the next assay, the target named is T4, EGFP-ORP8 (UniProt Q9BZF1).
T4 sequence: T2 sequence
Briefly: co-IP.

Assay [4] deals with T1, ORP5 (endogenous) (human (endogenous in HeLa)). Briefly: proximity ligation. The source holds these as a separate data set.
In a further assay the target is T5, HA-ORP5 (UniProt Q9H0X9).
T5 sequence: T1 sequence
As to the kind of experiment: proximity ligation.

Like-named read-outs stand apart in the source and are kept apart here. Results are given in words; binding and its absence hold for the method and conditions named. Binding seen in cells or lysates may run through a third protein. Some binding calls cover weakened binding; strength is not graded here. For some of these results: Where a sequence is shown, tags or fusion partners need not be part of it.

Take “TOM20 (endogenous) (from UniProt Q15388 1-145)”: the binding entry in assay [1] and in assay [2] was “binds” in each case.

B1: SAM50 (endogenous) (protein, UniProt Q9Y512 1-469)
chain: MGTVHARSLEPLPSSGPDFGGLGEEAEFVEVEPEAKQEILENKDVVVQHVHFDGLGRTKDDIIICEIGDVFKAKNLIEVMRKSHEAREKLLRLGIFRQVDVLIDTCQGDDALPNGLDVTFEVTELRRLTGSYNTMVGNNEGSMVLGLKLPNLLGRAEKVTFQFSYGTKETSYGLSFFKPRPGNFERNFSVNLYKVTGQFPWSSLRETDRGMSAEYSFPIWKTSHTVKWEGVWRELGCLSRTASFAVRKESGHSLKSSLSHAMVIDSRNSSILPRRGALLKVNQELAGYTGGDVSFIKEDFELQLNKQLIFDSVFSASFWGGMLVPIGDKPSSIADRFYLGGPTSIRGFSMHSIGPQSEGDYLGGEAYWAGGLHLYTPLPFRPGQGGFGELFRTHFFLNAGNLCNLNYGEGPKAHIRKLAECIRWSYGAGIVLRLGNIARLELNYCVPMGVQTGDRICDGVQFGAGIRFL
B1: the binding entry (in assay [3]; with EGFP-ORP5; with EGFP-ORP8) was “binds” in each case.

B2: ORP8 (endogenous) (protein, UniProt Q9BZF1 1-889)
chain: T2 sequence
Take B2: the binding result in assay [4] is reported as “binds”.

B3: 3XFLAG-ORP8 (protein, UniProt Q9BZF1 1-889)
chain: T2 sequence
B3: the binding entry with HA-ORP5 is on record as “binds”.

(Values after doi:10.1101/695577.)
